From PubChem BioAssay (NCATS)
The shares of active, inactive and inconclusive entries below differ from those in the screen. For some assays here: Potencies beside an inconclusive call are fits to weak or partial responses and may not hold up. Activity calls are given as the source filed them. The call rests on the fitted dose curve; in most records, active means well fitted curve in the direction sought with a large enough effect; inconclusive means small, poorly fitted or top-dose-only effect, or another doubt; inactive means no such curve, though single readings can be large; an effect the other way counts as inactive or inconclusive.

Key:
[1] = Quantitative High-Throughput drug screen in 47 multiple myeloma cell lines against the NCATS MIPE library collection: Karpas417_ECACC cell viability assay (AID 1918961); details: Karpas417 myeloma viability, CellTiter-Glo ATP luminescence, 48 h; viability (% of DMSO): at 45.8 µM (top of the series); further: potency means the concentration at half of the fitted maximal effect
Method in brief: (§1)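 Myeloma cell lines, 500 cells per well, exposed to MIPE 4.0 library compounds for 48 h at 37C, 5% CO2. Viability from ATP by CellTiter-Glo luminescence; normalised to DMSO (100%) and media-only (0%) wells.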

[2] = Quantitative High-Throughput drug screen in 47 multiple myeloma cell lines against the NCATS MIPE library collection: KHM11_PLB cell viability assay (AID 1918962); details: KHM11 myeloma cell viability, CellTiter-Glo ATP luminescence, 48 h; viability, % of DMSO control: at 45.8 µM (top of the series); further: nearly all actives have a fitted effect of over 35% in size; further: potency means the concentration at half of the fitted maximal effect
Method in brief: as §1

[3] = Quantitative High-Throughput drug screen in 47 multiple myeloma cell lines against the NCATS MIPE library collection: JIM1_ECACC cell viability assay (AID 1918964; further: potency means the concentration at half of the fitted maximal effect); details: JIM1 myeloma viability, CellTiter-Glo ATP luminescence, 48 h; viability (% of DMSO): at 45.8 µM (top of the series)
Method in brief: (§2)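 Approved and investigational drugs from MIPE 4.0 were added by pin tool to 500 cells per well. After 48 hours at 37C, ATP-based CellTiter-Glo luminescence indicated remaining viability.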

[4] = Quantitative High-Throughput drug screen in 47 multiple myeloma cell lines against the NCATS MIPE library collection: INA6_PLB cell viability assay (AID 1918965; further: nearly all actives have a fitted effect of over 55% in size; further: potency means the concentration at half of the fitted maximal effect); details: INA6 myeloma viability, CellTiter-Glo ATP luminescence, 48 h; viability (% of control): at 45.8 µM (top of the series)
Method in brief: as §1

[5] = Quantitative High-Throughput drug screen in 47 multiple myeloma cell lines against the NCATS MIPE library collection: JJN3_DSMZ cell viability assay (AID 1918966; further: nearly all actives have a fitted effect of over 50% in size; further: potency means the concentration at half of the fitted maximal effect); details: JJN3 myeloma cells viability, CellTiter-Glo ATP, 48 h; series mostly up to 45.8 µM
Method in brief: as §2

[6] = Quantitative High-Throughput drug screen in 47 multiple myeloma cell lines against the NCATS MIPE library collection: H1112_PLB cell viability assay (AID 1918967; further: nearly all actives have a fitted effect of over 30% in size); details: H1112 myeloma cells viability, ATP luminescence, 48 h; series mostly up to 45.8 µM
Method in brief: as §2

[7] = Quantitative High-Throughput drug screen in 47 multiple myeloma cell lines against the NCATS MIPE library collection: Karpas25_ECACC cell viability assay (AID 1918968; further: nearly all actives have a fitted effect of over 35% in size; further: potency means the concentration at half of the fitted maximal effect); details: Karpas25 myeloma viability, CellTiter-Glo ATP, 48 h; series mostly up to 45.8 µM
Method in brief: as §2

[8] = Quantitative High-Throughput drug screen in 47 multiple myeloma cell lines against the NCATS MIPE library collection: KMS12BM_JCRB cell viability assay (AID 1918971); details: KMS12BM myeloma viability, CellTiter-Glo ATP, 48 h; series mostly up to 45.8 µM; further: nearly all actives have a fitted effect of over 35% in size; further: potency means the concentration at half of the fitted maximal effect
Method in brief: (§3)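 Steps: seed 500 cells per well; pin-transfer MIPE 4.0 library; incubate 48 h at 37C, 5% CO2, humidified; add CellTiter-Glo, 5 min room temperature; read luminescence.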

[9] = Quantitative High-Throughput drug screen in 47 multiple myeloma cell lines against the NCATS MIPE library collection: KMS12PE_JCRB cell viability assay (AID 1918972); details: KMS12PE myeloma viability, CellTiter-Glo ATP, 48 h; viability: at 45.8 µM (top of the series); further: nearly all actives have a fitted effect of over 30% in size; further: potency means the concentration at half of the fitted maximal effect
Method in brief: as §1

[10] = Quantitative High-Throughput drug screen in 47 multiple myeloma cell lines against the NCATS MIPE library collection: KMS20_JCRB cell viability assay (AID 1918973); details: CellTiter-Glo ATP, 48 h; viability (% of DMSO): at 45.8 µM (top of the series); further: nearly all actives have a fitted effect of over 45% in size; further: potency means the concentration at half of the fitted maximal effect
Method in brief: as §2

[11] = Quantitative High-Throughput drug screen in 47 multiple myeloma cell lines against the NCATS MIPE library collection: MMM1_PLB cell viability assay (AID 1918976); details: MMM1 myeloma cells viability, CellTiter-Glo, 48 h; series mostly up to 45.8 µM; further: potency means the concentration at half of the fitted maximal effect; nearly all actives have a fitted effect of over 35% in size
Method in brief: (§4)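 500 cells/well per myeloma line exposed to pinned MIPE 4.0 compounds for 48 h at 37 °C, 5% CO2. Viability read as ATP by CellTiter-Glo luminescence, normalised to DMSO-only (100%) and media-only (0%) wells.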

[12] = Quantitative High-Throughput drug screen in 47 multiple myeloma cell lines against the NCATS MIPE library collection: MOLP8_DSMZ cell viability assay (AID 1918977); details: MOLP8 myeloma viability, CellTiter-Glo ATP luminescence, 48 h; series mostly up to 45.8 µM; further: nearly all actives have a fitted effect of over 45% in size; further: potency means the concentration at half of the fitted maximal effect
Method in brief: as §4

[13] = Quantitative High-Throughput drug screen in 47 multiple myeloma cell lines against the NCATS MIPE library collection: NCIH929_DSMZ cell viability assay (AID 1918978); details: NCI-H929 myeloma viability, CellTiter-Glo ATP, 48 h; viability, % of control: at 45.8 µM (top of the series); further: nearly all actives have a fitted effect of over 35% in size
Method in brief: as §4

[14] = Quantitative High-Throughput drug screen in 47 multiple myeloma cell lines against the NCATS MIPE library collection: MM1S_ATCC cell viability assay (AID 1918980); details: MM1S myeloma viability, CellTiter-Glo ATP luminescence, 48 h; series mostly up to 45.8 µM; further: nearly all actives have a fitted effect of over 45% in size; further: potency means the concentration at half of the fitted maximal effect
Method in brief: as §4

[15] = Quantitative High-Throughput drug screen in 47 multiple myeloma cell lines against the NCATS MIPE library collection: MM1R_ATCC cell viability assay (AID 1918981); details: MM1R multiple myeloma cells, CellTiter-Glo viability, 48 h; series mostly up to 45.8 µM; further: nearly all actives have a fitted effect of over 35% in size; further: potency means the concentration at half of the fitted maximal effect
Method in brief: as §4

[16] = Quantitative High-Throughput drug screen in 47 multiple myeloma cell lines against the NCATS MIPE library collection: JIM3_ECACC cell viability assay (AID 1918963; further: nearly all actives have a fitted effect of over 35% in size); details: JIM3 myeloma viability, CellTiter-Glo ATP, 48 h; viability, percent of control: at 45.8 µM (top of the series)
Method in brief: as §1

[17] = Quantitative High-Throughput drug screen in 47 multiple myeloma cell lines against the NCATS MIPE library collection: KMS21BM_JCRB cell viability assay (AID 1918974); details: ATP luminescence, 48 h; viability: at 45.8 µM (top of the series); further: potency means the concentration at half of the fitted maximal effect
Method in brief: as §2

[18] = Quantitative High-Throughput drug screen in 47 multiple myeloma cell lines against the NCATS MIPE library collection: KMS26_JCRB cell viability assay (AID 1918975); details: KMS26 myeloma cells viability, CellTiter-Glo ATP, 48 h; viability (% of DMSO): at 45.8 µM (top of the series); further: nearly all actives have a fitted effect of over 45% in size
Method in brief: as §3

[19] = Quantitative High-Throughput drug screen in 47 multiple myeloma cell lines against the NCATS MIPE library collection: OCIMY1_PLB cell viability assay (AID 1918979); details: OCI-MY1 myeloma viability, CellTiter-Glo ATP, 48 h; series mostly up to 45.8 µM
Method in brief: as §4

[20] = Quantitative High-Throughput drug screen in 47 multiple myeloma cell lines against the NCATS MIPE library collection: KMS27_JCRB cell viability assay (AID 1918970); details: KMS27 myeloma cells, CellTiter-Glo ATP viability, 48 h; viability (% of DMSO): at 45.8 µM (top of the series); further: nearly all actives have a fitted effect of over 30% in size; further: potency means the concentration at half of the fitted maximal effect
Method in brief: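 Viability inhibition screen, 48 h compound exposure, luminescent ATP read-out.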

COc1cccc2c1[C@]13CCN(CC4CC4)[C@H](C2)[C@]1(OC)CCC(=O)C3
active: viability (% of DMSO) [1] 89.4%
inactive: Potency [2] | Potency [4] | Potency [6] | Potency [7] | Potency [8] | Potency [9] | Potency [12] | Potency [13] | Potency [14] | Potency [15]
inconclusive: Potency [3] 0.0042 µM [rising, full curve, poor fit] | Potency [5] 0.0019 µM [rising, full curve, poor fit] | Potency [10] 23.5 µM [cytotoxic, single point] | Potency [11] 0.0042 µM [rising, full curve, poor fit]

CN1C(=O)CCS(=O)(=O)C1c1ccc(Cl)cc1 (configuration not stated)
inactive: Potency [16] | Potency [3] | Potency [4] | Potency [5] | Potency [8] | Potency [10] | Potency [18] | Potency [12] | Potency [15]
inconclusive: Potency [1] 10.5 µM [rising, full curve, poor fit] | Potency [2] 0.935 µM [rising, full curve, poor fit] | Potency [7] 16.6 µM [cytotoxic, partial curve] | Potency [17] 37.2 µM [rising, single point] | Potency [11] 0.59 µM [cytotoxic, full curve, poor fit] | Potency [19] 0.833 µM [cytotoxic, partial curve, poor fit]

C#C[C@]1(O)C=C[C@@H]2[C@@H]3CCC4=CC(=O)CC[C@@H]4[C@H]3CC[C@@]21CC
inactive: Potency [6] | Potency [7] | Potency [10] | Potency [18] | Potency [12] | Potency [14]
inconclusive: Potency [1] 6.62 µM [cytotoxic, partial curve, poor fit] | Potency [2] 0.0372 µM [rising, full curve] | Potency [3] 23.5 µM [cytotoxic, single point] | Potency [4] 18.7 µM [cytotoxic, partial curve, poor fit] | Potency [5] 0.0418 µM [rising, full curve, poor fit] | Potency [20] 37.2 µM [cytotoxic, single point] | Potency [8] 0.0023 µM [rising, full curve, poor fit] | Potency [9] 23.5 µM [cytotoxic, single point] | Potency [17] 8.33 µM [cytotoxic, partial curve, poor fit] | Potency [11] 0.0833 µM [rising, full curve] | Potency [15] 0.0059 µM [rising, full curve, poor fit]

CCc1c(C(=O)C(N)=O)c2c(OCC(=O)O)cccc2n1Cc1ccccc1
inconclusive: Potency [2] 0.0235 µM [rising, full curve, poor fit] | Potency [17] 0.0023 µM [cytotoxic, full curve, poor fit] | Potency [11] 14.8 µM [cytotoxic, partial curve, poor fit] | Potency [12] 3.32 µM [cytotoxic, full curve, poor fit]
inactive: Potency [1] | Potency [16] | Potency [3] | Potency [4] | Potency [5] | Potency [20] | Potency [8] | Potency [9] | Potency [10] | Potency [14]

COc1ccc(C(CN(C)C)C2(O)CCCCC2)cc1 (configuration not stated)
inconclusive: Potency [1] 16.6 µM [rising, partial curve] | Potency [2] 37.2 µM [cytotoxic, single point] | Potency [4] 20.9 µM [rising, single point] | Potency [5] 18.7 µM [cytotoxic, partial curve, poor fit] | Potency [9] 0.0013 µM [cytotoxic, full curve, poor fit] | Potency [10] 1.05 µM [cytotoxic, full curve, poor fit] | Potency [17] 13.2 µM [rising, partial curve] | Potency [11] 1.32 µM [cytotoxic, full curve, poor fit] | Potency [14] 29.6 µM [cytotoxic, single point]
inactive: Potency [16] | Potency [3] | Potency [7] | Potency [20] | Potency [8] | Potency [18] | Potency [12]
